In the assay the target is T1, ubiquitin‐like protein with plant homeodomain and ring finger domains 1 (UHRF1) (human) (UniProt Q96T88).
T1 sequence: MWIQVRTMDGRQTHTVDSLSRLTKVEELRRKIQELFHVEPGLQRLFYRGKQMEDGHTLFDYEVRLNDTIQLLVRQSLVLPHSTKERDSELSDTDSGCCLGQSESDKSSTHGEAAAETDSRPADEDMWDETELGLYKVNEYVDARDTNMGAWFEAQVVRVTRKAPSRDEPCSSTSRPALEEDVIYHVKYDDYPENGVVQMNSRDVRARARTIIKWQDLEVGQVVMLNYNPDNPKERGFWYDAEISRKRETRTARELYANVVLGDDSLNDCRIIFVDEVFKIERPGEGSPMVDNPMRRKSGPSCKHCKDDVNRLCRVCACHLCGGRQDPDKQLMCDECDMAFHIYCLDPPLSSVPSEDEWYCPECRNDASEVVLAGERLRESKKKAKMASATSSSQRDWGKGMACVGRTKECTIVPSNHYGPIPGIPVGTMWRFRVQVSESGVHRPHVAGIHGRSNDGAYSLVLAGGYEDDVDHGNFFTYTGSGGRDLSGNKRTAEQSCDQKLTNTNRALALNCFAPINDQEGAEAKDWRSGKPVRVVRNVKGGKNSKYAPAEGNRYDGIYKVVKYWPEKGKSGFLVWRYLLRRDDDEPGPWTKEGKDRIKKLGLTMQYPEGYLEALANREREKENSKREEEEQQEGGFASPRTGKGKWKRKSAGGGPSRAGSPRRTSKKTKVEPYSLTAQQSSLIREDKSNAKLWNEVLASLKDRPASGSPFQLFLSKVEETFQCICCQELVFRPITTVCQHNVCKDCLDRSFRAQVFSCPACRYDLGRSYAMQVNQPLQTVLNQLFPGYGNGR
The assay can be described thus: co-IP; immunoprecipitation by a previously described protocol (ref. 47); cells, precipitating antibody and bait not stated; for DNMT1/DNMT3A also after UHRF1 knockdown.

Chains of the proteins cited; added tags and fusions are not shown.
UniProt P52952: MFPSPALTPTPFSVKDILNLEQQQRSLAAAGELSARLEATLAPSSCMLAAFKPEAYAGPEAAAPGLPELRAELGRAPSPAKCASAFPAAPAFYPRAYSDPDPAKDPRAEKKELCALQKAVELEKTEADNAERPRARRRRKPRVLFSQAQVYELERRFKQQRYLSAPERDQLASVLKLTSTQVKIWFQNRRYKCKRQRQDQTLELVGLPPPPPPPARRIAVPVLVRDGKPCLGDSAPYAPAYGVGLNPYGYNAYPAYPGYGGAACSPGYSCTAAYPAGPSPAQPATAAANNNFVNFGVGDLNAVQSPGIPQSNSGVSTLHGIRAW

No constants are given. Whether binding was seen depends on the method and setting. In cells and extracts the contact can be indirect. Some results given as binding are weak or reduced against the parent protein; the word gives no strength.

Binding data for one substance are collected here from paper PMC12120717.

Consider NKX2‐5 (from UniProt P52952 1-324), for which the binding result was “binds”.
